Data from PubChem BioAssay AID216 (DTP/NCI, 2004).
The list does not hold the whole screen: it is rich in T/C values a quarter to a half above the control, in often repeated tests (any T/C) and in doses without a T/C. Other doses and runs of a compound stand elsewhere. T/C: endpoint of the treated group in % of that of the vehicle group. Some entries give survivors of the animals treated and no T/C: the source holds a T/C of zero for them, seemingly a mark for toxic or unscored doses. Some doses without a T/C left all or most animals alive at the check, yet need not have been tolerated: survival well below the control is almost never listed, so the zero probably covers shortened survival too. Counts of survivors are from the toxicity check (mostly the fifth day) where no day follows; animals may have died later. Schedule codes are those of the source, taken here to give the interval after Q, in days (D) or hours (H), and the number of doses after X. Some entries were tested several times; the values are given in rising order. Some schedules carry Z or #; the key to these is not given. For survival time, this PubChem deposit counts one and a half times the control or more as active, and values a quarter to a half above the control carry no call in these data; other NCI protocols may use other cut-offs. Marks such as (2×) count equal records among those shown.

Tested on: BDF1 mice, P288 leukemia ip, survival T/C
Test: NCI In Vivo Anticancer Drug Screen. Data for tumor model P288 Lymphocytic Leukemia (intraperitoneal) in B6D2F1 (BDF1) mice
Settings: T/C endpoint: survival time, mean or median, higher T/C = longer survival
Procedure: The antitumor activity of compounds was measured in mice bearing transplantable tumors. Survival or tumor size were measured and the results are expressed as the measurement made in the treated group (T) divided by the measurement made in the vehicle treated control group (C). The tumor model used in this assay is P288 Lymphocytic Leukemia (intraperitoneal) in B6D2F1 (BDF1) mice

[1] = dose: 6.25 mg/kg/injection, schedule: Q01DX010 (ip), vehicle: saline
[2] = dose: 12.5 mg/kg/injection, schedule: Q01DX010 (ip), vehicle: saline
[3] = dose: 25.0 mg/kg/injection, schedule: Q01DX010 (ip), vehicle: saline
[4] = dose: 3.13 mg/kg/injection, schedule: Q01DX010 (ip), vehicle: saline

How did the survivor count [1] turn out when O=C(O)CCCc1ccc(N(CCCl)CCCl)cc1 was run?
Its survivor count is 6 of 6.

What about the T/C (dose: 6.25 mg/kg/injection, schedule: Q01DX Z (ip), vehicle: carboxymethylcellulose (CMC)) of the same compound?
The T/C was 125 % of control.

What about the survivor count [2] of the same compound?
The survivor count was 6 of 6.

What about the survivor count (dose: 12.5 mg/kg/injection, schedule: Q01DX Z (ip), vehicle: carboxymethylcellulose (CMC)) of the same compound?
The survivor count was 6 of 6.

And the survivor count [3]?
Its survivor count is 0 of 6 and 4 of 6.

And the survivor count (dose: 50.0 mg/kg/injection, schedule: Q01DX Z (ip), vehicle: carboxymethylcellulose (CMC))?
The survivor count was 5 of 6.

With CCCNc1ncnc2[nH]ncc12 as the compound, how does the T/C (dose: 1.25 mg/kg/injection, schedule: Q01DX Z (ip), vehicle: water) read?
The T/C was 128 % of control.

What about the T/C [4] of the same compound?
Its T/C is 105 % of control.

What about the survivor count [4] of the same compound?
The survivor count was 6 of 6.

And the survivor count (dose: 5.0 mg/kg/injection, schedule: Q01DX Z (ip), vehicle: water)?
Its survivor count is 6 of 6.

What about the T/C [1] of the same compound?
Its T/C is 88 (2×), 90, 94 % of control.

And the T/C [2]?
Its T/C is 94 (2×), 95, 100 % of control.

What about the survivor count (dose: 20.0 mg/kg/injection, schedule: Q01DX Z (ip), vehicle: water) of the same compound?
The survivor count was 6 of 6.

What about the T/C [3] of the same compound?
The T/C was 100, 110, 111, 117 % of control.

And the survivor count (dose: 40.0 mg/kg/injection, schedule: Q01DX Z (ip), vehicle: water)?
Its survivor count is 6 of 6.

And the survivor count (dose: 160.0 mg/kg/injection, schedule: Q01DX Z (ip), vehicle: water)?
Its survivor count is 0 of 6.

How did the survivor count (dose: 0.99 mg/kg/injection, schedule: Q01DX Z (ip), vehicle: carboxymethylcellulose (CMC)) turn out when C[C@H]1C(=O)O[C@@H]2CCN3CC=C(COC(=O)[C@](C)(O)[C@@]1(C)O)[C@H]23 was run?
Its survivor count is 6 of 6.

What about the survivor count (dose: 1.88 mg/kg/injection, schedule: Q01DX Z (ip), vehicle: carboxymethylcellulose (CMC)) of the same compound?
Its survivor count is 6 of 6.

And the survivor count (dose: 3.75 mg/kg/injection, schedule: Q01DX Z (ip), vehicle: carboxymethylcellulose (CMC))?
The survivor count was 6 of 6.

What about the T/C [1] of the same compound?
Its T/C is 126 % of control.

What about the survivor count (dose: 7.5 mg/kg/injection, schedule: Q01DX Z (ip), vehicle: carboxymethylcellulose (CMC)) of the same compound?
The survivor count was 6 of 6.

What about the survivor count (dose: 15.0 mg/kg/injection, schedule: Q01DX Z (ip), vehicle: carboxymethylcellulose (CMC)) of the same compound?
The survivor count was 6 of 6.

What about the survivor count (dose: 30.0 mg/kg/injection, schedule: Q01DX Z (ip), vehicle: carboxymethylcellulose (CMC)) of the same compound?
Its survivor count is 6 of 6.

And the survivor count (dose: 60.0 mg/kg/injection, schedule: Q01DX Z (ip), vehicle: carboxymethylcellulose (CMC))?
The survivor count was 6 of 6.

What about the survivor count (dose: 120.0 mg/kg/injection, schedule: Q01DX Z (ip), vehicle: carboxymethylcellulose (CMC)) of the same compound?
The survivor count was 4 of 6.

For CC[C@H](c1ccc(O)cc1)[C@@H](CC)c1ccc(O)cc1, which survivor count (dose: 250.0 mg/kg/injection, schedule: Q01DX Z (sc), vehicle: steroid suspending solution) is on record?
The survivor count was 6 of 6.

And the survivor count (dose: 500.0 mg/kg/injection, schedule: Q01DX Z (sc), vehicle: steroid suspending solution)?
The survivor count was 5 of 6.

How did the survivor count (dose: 0.5 mg/kg/injection, schedule: Q01DX Z (ip), vehicle: carboxymethylcellulose (CMC)) turn out when CC(CCC(C)OS(C)(=O)=O)OS(C)(=O)=O (centres undefined) was run?
Its survivor count is 6 of 6.

What about the survivor count (dose: 2.0 mg/kg/injection, schedule: Q01DX010 (ip), vehicle: saline) of the same compound?
Its survivor count is 6 of 6.

And the survivor count (dose: 4.0 mg/kg/injection, schedule: Q01DX010 (ip), vehicle: saline)?
The survivor count was 6 of 6.

And the survivor count (dose: 5.0 mg/kg/injection, schedule: Q01DX Z (ip), vehicle: carboxymethylcellulose (CMC))?
Its survivor count is 4 of 6.

And the survivor count (dose: 8.0 mg/kg/injection, schedule: Q01DX010 (ip), vehicle: saline)?
Its survivor count is 6 of 6.

And the survivor count (dose: 10.0 mg/kg/injection, schedule: Q01DX Z (ip), vehicle: carboxymethylcellulose (CMC))?
Its survivor count is 6 of 6.

What about the survivor count (dose: 20.0 mg/kg/injection, schedule: Q01DX Z (ip), vehicle: carboxymethylcellulose (CMC)) of the same compound?
Its survivor count is 6 of 6.

What about the survivor count (dose: 40.0 mg/kg/injection, schedule: Q01DX Z (ip), vehicle: carboxymethylcellulose (CMC)) of the same compound?
The survivor count was 1 of 6.

For CN(C)c1ccc(Nc2c3ccccc3nc3ccccc23)cc1, which T/C (dose: 25.0 mg/kg/injection, schedule: Q01DX Z (ip), vehicle: carboxymethylcellulose (CMC)) is on record?
The T/C was 126 % of control.

And the T/C (dose: 36.0 mg/kg/injection, schedule: Q01DX010 (ip), vehicle: saline)?
Its T/C is 136 % of control.

And the T/C (dose: 54.0 mg/kg/injection, schedule: Q01DX010 (ip), vehicle: saline)?
Its T/C is 142 % of control.

What about the T/C (dose: 120.0 mg/kg/injection, schedule: Q01DX010 (ip), vehicle: saline) of the same compound?
The T/C was 136 % of control.
